# Publication PMC6326811
# Results are given in words; binding and its absence hold for the method and conditions named. Binding seen in cells or lysates may run through a third protein.
# B1: DKC1 (endogenous) (protein, UniProt O60832 1-514)
# chain: MADAEVIILPKKHKKKKERKSLPEEDVAEIQHAEEFLIKPESKVAKLDTSQWPLLLKNFDKLNVRTTHYTPLACGSNPLKREIGDYIRTGFINLDKPSNPSSHEVVAWIRRILRVEKTGHSGTLDPKVTGCLIVCIERATRLVKSQQSAGKEYVGIVRLHNAIEGGTQLSRALETLTGALFQRPPLIAAVKRQLRVRTIYESKMIEYDPERRLGIFWVSCEAGTYIRTLCVHLGLLLGVGGQMQELRRVRSGVMSEKDHMVTMHDVLDAQWLYDNHKDESYLRRVVYPLEKLLTSHKRLVMKDSAVNAICYGAKIMLPGVLRYEDGIEVNQEIVVITTKGEAICMAIALMTTAVISTCDHGIVAKIKRVIMERDTYPRKWGLGPKASQKKLMIKQGLLDKHGKPTDSTPATWKQEYVDYSESAKKEVVAEVVKAPQVVAEAAKTAKRKRESESESDETPPAAPQLIKKEKKKSKKDKKAKAGLESGAEPGDGDSDTTKKKKKKKKAKEVELVSE
# Target: FLAG-HA-tagged TOE1ΔDEDD, DEDD domain deletion mutant (human)
# Experiment: co-IP; 293T cells transiently expressing FLAG-HA-tagged wild-type or mutant TOE1; IP with anti-FLAG agarose beads; blots with anti-FLAG and anti-DKC1 (endogenous DKC1); no RNase
binder,measurement,value
B1,binding,no binding
